Experimental data: publication PMC10566187
These are yes or no findings as the source states them, for the method shown. In cells and extracts the contact can be indirect. These calls come from enrichment with a bait or labelling near it, and not all partners need be listed. Where a sequence is shown, tags or fusion partners need not be part of it.

Biological target: T1, meiotic nuclear divisions 1 (MND1), Flag-tagged (UniProt Q9BWT6)
T1 sequence: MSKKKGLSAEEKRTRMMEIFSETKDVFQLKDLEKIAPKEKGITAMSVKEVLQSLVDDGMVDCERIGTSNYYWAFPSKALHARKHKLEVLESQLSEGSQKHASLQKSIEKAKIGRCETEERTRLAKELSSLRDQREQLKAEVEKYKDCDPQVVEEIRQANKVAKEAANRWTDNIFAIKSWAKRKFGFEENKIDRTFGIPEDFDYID
Test: affinity purification with mass spectrometry; HGC27 cells transfected with the Flag-MND1 vector, lysed with a CO-IP kit (Absin); input, IP and IgG groups; LC-MS/MS of the precipitate

binding: binds
B1: transketolase (TKT) (protein, UniProt P29401 1-623)
chain: MESYHKPDQQKLQALKDTANRLRISSIQATTAAGSGHPTSCCSAAEIMAVLFFHTMRYKSQDPRNPHNDRFVLSKGHAAPILYAVWAEAGFLAEAELLNLRKISSDLDGHPVPKQAFTDVATGSLGQGLGAACGMAYTGKYFDKASYRVYCLLGDGELSEGSVWEAMAFASIYKLDNLVAILDINRLGQSDPAPLQHQMDIYQKRCEAFGWHAIIVDGHSVEELCKAFGQAKHQPTAIIAKTFKGRGITGVEDKESWHGKPLPKNMAEQIIQEIYSQIQSKKKILATPPQEDAPSVDIANIRMPSLPSYKVGDKIATRKAYGQALAKLGHASDRIIALDGDTKNSTFSEIFKKEHPDRFIECYIAEQNMVSIAVGCATRNRTVPFCSTFAAFFTRAFDQIRMAAISESNINLCGSHCGVSIGEDGPSQMALEDLAMFRSVPTSTVFYPSDGVATEKAVELAANTKGICFIRTSRPENAIIYNNNEDFQVGQAKVVLKSKDDQVTVIGAGVTLHEALAAAELLKKEKINIRVLDPFTIKPLDRKLILDSARATKGRILTVEDHYYEGGIGEAVSSAVVGEPGITVTHLAVNRVPRSGKPAELLKMFGIDRDAIAQAVRGLITKA
